Data reported in the supplement of paper PMC10849652.
This is one part of the list.

The chains behind the UniProt entries cited, without tags or fusion partners. Where a name states a change or a piece, a line headed by the entry shows the natural chain unless it says otherwise.
UniProt Q6AWC2, whole entry, looked up: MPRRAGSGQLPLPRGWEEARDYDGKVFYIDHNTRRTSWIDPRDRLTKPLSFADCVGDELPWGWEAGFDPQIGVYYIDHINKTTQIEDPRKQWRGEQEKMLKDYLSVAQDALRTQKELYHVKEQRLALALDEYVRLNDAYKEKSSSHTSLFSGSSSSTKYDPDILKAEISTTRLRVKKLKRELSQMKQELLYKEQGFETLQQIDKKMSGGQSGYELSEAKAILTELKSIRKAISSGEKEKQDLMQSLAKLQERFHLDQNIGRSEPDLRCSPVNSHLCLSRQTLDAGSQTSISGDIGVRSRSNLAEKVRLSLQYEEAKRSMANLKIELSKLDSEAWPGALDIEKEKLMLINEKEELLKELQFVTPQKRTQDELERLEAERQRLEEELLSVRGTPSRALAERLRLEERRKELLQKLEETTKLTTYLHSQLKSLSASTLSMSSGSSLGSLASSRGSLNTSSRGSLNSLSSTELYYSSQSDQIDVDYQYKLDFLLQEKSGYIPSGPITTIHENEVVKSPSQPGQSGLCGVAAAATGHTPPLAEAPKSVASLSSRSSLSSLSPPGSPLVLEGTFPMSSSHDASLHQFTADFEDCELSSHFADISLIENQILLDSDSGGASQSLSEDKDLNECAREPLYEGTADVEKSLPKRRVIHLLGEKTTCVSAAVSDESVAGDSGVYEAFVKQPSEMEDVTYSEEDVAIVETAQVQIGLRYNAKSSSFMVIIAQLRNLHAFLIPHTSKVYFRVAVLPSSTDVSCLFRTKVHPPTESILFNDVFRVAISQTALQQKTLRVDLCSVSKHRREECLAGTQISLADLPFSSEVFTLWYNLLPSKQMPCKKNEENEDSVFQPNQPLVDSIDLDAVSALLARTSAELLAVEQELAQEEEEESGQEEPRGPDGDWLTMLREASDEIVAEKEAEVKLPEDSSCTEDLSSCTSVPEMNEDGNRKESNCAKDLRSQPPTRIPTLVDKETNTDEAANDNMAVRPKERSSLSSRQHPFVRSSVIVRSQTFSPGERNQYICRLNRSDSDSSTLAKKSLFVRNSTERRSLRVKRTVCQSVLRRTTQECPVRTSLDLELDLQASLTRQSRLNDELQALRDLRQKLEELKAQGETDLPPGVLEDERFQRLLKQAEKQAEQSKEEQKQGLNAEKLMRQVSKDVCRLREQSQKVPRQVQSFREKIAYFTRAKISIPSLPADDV
UniProt Q9P2S5: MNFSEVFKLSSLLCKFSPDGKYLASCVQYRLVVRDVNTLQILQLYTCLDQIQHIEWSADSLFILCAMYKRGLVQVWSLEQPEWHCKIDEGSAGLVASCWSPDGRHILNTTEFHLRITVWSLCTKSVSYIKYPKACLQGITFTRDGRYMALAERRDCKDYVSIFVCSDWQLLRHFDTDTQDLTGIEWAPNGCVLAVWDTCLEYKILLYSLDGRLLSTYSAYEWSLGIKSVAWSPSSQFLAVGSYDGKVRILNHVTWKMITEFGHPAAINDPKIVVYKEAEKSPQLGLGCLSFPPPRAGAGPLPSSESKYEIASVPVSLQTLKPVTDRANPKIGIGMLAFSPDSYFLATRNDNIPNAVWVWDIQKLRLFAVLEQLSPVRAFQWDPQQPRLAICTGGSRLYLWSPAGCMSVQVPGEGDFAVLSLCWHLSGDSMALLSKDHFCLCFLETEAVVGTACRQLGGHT
UniProt O43379: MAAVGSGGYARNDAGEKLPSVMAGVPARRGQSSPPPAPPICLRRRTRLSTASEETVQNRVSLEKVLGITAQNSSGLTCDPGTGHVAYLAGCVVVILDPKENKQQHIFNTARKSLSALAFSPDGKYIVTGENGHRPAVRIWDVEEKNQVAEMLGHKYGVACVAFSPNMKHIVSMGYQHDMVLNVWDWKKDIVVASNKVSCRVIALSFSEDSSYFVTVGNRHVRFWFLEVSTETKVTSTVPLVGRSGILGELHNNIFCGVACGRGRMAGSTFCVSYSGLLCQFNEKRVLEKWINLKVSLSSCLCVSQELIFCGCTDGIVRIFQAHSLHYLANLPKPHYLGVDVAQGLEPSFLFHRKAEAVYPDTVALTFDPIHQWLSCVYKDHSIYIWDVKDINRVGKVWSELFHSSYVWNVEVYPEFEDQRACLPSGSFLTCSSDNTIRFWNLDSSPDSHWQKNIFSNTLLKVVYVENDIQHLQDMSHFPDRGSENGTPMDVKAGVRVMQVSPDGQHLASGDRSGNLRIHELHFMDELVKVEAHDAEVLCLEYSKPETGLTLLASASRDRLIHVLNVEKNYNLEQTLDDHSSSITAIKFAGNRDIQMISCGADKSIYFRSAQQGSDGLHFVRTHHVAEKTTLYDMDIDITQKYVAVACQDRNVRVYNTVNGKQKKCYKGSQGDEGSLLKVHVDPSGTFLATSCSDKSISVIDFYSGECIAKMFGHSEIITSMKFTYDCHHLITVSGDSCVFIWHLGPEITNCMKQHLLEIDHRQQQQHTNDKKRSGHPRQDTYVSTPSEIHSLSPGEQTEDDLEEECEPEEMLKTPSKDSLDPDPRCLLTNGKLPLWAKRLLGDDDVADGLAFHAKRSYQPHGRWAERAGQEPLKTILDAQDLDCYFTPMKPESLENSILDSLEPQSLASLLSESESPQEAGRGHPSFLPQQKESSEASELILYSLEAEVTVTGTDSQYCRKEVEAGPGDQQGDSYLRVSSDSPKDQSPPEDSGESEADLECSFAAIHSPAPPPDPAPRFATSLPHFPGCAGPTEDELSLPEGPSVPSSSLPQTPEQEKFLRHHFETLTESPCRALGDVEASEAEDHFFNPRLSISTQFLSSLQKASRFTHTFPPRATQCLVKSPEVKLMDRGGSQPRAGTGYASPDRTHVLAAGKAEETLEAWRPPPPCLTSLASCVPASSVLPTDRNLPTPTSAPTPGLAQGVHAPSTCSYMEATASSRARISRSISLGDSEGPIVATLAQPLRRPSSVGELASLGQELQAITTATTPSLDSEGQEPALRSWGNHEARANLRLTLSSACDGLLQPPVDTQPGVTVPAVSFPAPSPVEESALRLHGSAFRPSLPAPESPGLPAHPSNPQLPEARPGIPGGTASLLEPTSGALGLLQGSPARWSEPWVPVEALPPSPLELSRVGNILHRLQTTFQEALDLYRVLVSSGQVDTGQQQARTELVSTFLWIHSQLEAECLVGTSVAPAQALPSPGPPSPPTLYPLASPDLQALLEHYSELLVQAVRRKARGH
UniProt Q4G0F5, whole entry, looked up: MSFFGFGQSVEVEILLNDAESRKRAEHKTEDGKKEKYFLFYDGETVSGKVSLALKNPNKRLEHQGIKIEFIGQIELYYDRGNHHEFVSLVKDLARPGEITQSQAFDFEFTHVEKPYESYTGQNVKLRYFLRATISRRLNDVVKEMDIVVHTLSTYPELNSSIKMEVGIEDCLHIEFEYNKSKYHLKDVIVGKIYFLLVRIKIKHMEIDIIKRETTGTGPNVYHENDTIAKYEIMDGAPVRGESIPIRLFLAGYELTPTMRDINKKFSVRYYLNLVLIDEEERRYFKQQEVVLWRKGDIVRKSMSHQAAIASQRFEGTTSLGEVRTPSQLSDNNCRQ
UniProt Q92558: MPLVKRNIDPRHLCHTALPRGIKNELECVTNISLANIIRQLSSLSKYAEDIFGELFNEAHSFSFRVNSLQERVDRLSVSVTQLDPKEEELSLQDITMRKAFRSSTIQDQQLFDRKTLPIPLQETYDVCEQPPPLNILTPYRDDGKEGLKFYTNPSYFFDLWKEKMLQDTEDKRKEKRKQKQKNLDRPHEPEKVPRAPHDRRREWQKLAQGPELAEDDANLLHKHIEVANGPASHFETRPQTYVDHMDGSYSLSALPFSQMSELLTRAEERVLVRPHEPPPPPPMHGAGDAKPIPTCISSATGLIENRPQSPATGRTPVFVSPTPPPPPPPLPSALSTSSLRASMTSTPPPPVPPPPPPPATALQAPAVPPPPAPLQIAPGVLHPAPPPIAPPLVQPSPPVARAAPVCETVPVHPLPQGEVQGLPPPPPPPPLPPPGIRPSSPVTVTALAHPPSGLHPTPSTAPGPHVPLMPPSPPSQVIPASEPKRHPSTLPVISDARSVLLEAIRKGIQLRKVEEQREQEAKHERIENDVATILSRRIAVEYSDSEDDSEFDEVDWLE
UniProt Q9P1Q0: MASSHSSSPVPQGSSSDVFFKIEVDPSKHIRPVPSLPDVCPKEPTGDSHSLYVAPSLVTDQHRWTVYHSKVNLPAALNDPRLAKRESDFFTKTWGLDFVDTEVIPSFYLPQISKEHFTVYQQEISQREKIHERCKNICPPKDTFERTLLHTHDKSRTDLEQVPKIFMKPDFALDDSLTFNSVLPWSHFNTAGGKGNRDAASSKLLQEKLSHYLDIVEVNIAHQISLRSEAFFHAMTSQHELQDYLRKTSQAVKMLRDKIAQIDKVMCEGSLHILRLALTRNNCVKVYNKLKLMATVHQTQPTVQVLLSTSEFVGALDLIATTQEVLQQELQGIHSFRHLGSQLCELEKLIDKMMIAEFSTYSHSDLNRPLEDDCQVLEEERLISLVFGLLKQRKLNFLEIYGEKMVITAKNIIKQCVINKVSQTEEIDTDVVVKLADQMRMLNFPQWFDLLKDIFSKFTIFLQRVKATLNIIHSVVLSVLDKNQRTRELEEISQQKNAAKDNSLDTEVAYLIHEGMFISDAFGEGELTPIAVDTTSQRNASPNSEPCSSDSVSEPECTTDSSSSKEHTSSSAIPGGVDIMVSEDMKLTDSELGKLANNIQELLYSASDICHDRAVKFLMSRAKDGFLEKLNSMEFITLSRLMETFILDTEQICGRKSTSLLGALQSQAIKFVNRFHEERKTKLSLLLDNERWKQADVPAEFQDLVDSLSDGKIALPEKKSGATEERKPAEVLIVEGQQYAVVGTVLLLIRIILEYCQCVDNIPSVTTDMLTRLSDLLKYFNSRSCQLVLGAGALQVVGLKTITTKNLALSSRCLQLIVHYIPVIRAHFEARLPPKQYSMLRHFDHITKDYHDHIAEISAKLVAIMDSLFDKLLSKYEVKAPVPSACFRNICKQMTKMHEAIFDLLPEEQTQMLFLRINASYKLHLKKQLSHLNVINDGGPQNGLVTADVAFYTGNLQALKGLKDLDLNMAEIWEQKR
UniProt O94967: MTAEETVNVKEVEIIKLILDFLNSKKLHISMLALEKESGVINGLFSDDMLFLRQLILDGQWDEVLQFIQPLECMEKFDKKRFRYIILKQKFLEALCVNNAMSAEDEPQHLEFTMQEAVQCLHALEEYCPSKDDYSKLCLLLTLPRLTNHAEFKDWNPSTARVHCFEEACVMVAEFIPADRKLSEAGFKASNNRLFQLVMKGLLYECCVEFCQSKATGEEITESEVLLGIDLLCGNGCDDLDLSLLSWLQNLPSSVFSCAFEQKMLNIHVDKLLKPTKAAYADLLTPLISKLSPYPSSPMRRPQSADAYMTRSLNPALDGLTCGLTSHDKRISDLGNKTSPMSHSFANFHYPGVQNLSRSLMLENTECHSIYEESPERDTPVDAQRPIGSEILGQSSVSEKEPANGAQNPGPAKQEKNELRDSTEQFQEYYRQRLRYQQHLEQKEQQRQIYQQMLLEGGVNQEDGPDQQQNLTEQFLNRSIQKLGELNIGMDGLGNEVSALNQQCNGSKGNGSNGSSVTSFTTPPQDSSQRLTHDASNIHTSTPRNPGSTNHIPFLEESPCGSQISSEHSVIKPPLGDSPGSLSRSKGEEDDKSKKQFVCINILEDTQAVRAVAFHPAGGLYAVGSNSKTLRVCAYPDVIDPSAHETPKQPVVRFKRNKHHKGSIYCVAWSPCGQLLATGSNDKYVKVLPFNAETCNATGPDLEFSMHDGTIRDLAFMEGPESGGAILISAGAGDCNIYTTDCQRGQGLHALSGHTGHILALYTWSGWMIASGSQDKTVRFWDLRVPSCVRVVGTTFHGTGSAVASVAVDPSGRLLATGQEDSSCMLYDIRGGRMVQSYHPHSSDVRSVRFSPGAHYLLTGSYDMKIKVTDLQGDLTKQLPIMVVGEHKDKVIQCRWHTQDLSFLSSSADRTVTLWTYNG
UniProt Q5T750: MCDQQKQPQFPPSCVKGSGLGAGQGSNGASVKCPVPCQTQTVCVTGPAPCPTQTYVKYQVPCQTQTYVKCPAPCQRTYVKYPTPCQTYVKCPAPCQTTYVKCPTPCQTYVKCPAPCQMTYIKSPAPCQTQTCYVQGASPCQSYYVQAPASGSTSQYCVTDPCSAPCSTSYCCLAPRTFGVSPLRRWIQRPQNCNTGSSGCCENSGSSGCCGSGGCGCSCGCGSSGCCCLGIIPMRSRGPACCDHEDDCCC
UniProt Q96HA8: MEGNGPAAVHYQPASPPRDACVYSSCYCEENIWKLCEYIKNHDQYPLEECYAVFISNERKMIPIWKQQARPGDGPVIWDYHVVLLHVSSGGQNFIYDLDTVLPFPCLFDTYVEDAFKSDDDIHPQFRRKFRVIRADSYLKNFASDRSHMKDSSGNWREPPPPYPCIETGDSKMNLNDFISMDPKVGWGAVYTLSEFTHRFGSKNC

Columns and labels:
Experiment in all cases: log2 fold change, soluble protein after heating vs DMSO (PISA); higher = thermal stabilisation; K562 lysate, 10 uM; active = over 0.2 and 3.5 SD of the protein, either way, in both replicates (recomputed)
lapatinib = compound: CS(=O)(=O)CCNCc1ccc(-c2ccc3ncnc(Nc4ccc(OCc5cccc(F)c5)c(Cl)c4)c3c2)o1 [lapatinib]
Outline: (§1)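 Log-two fold change in thermal stability relative to solvent controls is reported from duplicates. For each sample, crude K562 extract from dounce-homogenised pellets in PBS pH 7.4 with 1 mM MgCl2, at 1 mg/mL protein, was treated with 10 μM compound for 30 min. Aliquots heated for 3 min across 48°C-58°C were pooled, brought to 0.5% NP-40 at 4°C and cleared at 21,000xg for 90 min. The supernatant was quantified by TMTpro 16plex LC-MS/MS with channel sums equalised.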

pictilisib = compound: CS(=O)(=O)N1CCN(Cc2cc3nc(-c4cccc5[nH]ncc45)nc(N4CCOCC4)c3s2)CC1 [pictilisib]
Outline: as §1

crizotinib = compound: C[C@@H](Oc1cc(-c2cnn(C3CCNCC3)c2)cnc1N)c1c(Cl)ccc(F)c1Cl [crizotinib]
Outline: as §1

[1] = compound: C[C@H](C1=CC=C(C=C1)C(=O)NC2=C3C=CNC3=NC=C2)N
Outline: as §1

duvelisib = compound: C[C@H](Nc1ncnc2nc[nH]c12)c1cc2cccc(Cl)c2c(=O)n1-c1ccccc1 [duvelisib]
Outline: as §1

gandotinib = compound: Cc1cc(Nc2cc(CN3CCOCC3)c3nc(C)c(Cc4ccc(Cl)cc4F)n3n2)n[nH]1 [gandotinib]
Outline: as §1

tozasertib = compound: Cc1cc(Nc2cc(N3CCN(C)CC3)nc(Sc3ccc(NC(=O)C4CC4)cc3)n2)n[nH]1 [tozasertib]
Outline: as §1

doramapimod = compound: Cc1ccc(-n2nc(C(C)(C)C)cc2NC(=O)Nc2ccc(OCCN3CCOCC3)c3ccccc23)cc1 [doramapimod]
Outline: as §1

bafetinib = compound: Cc1ccc(NC(=O)c2ccc(CN3CC[C@H](N(C)C)C3)c(C(F)(F)F)c2)cc1Nc1nccc(-c2cncnc2)n1 [bafetinib]
Outline: as §1

[2] = compound: Cc1cccc(CC(=O)N2CCc3c2ccc(-c2cn(C)c4ncnc(N)c24)c3F)n1
Outline: as §1

Measured: log2 fold change

WWC2 isoform 6 (UniProt Q6AWC2)
inactive: lapatinib -0.076 | pictilisib 0.052 | crizotinib -0.055 | [1] 0.054 | duvelisib 0.062 | gandotinib -0.071 | tozasertib 0.095 | doramapimod 0.073 | bafetinib -0.034 | [2] 0.045

VPS52 (UniProt Q8N1B4)
inactive: lapatinib -0.032 | pictilisib 0.024 | crizotinib -0.025 | [1] -0.001 | duvelisib -0.013 | gandotinib -0.064 | tozasertib -0.022 | doramapimod -0.046 | bafetinib -0.063 | [2] 0.074

WAPL isoform 3 (UniProt Q7Z5K2)
inactive: lapatinib 0.001 | pictilisib -0.014 | crizotinib -0.068 | [1] -0.113 | duvelisib -0.003 | gandotinib 0.04 | tozasertib 0.006 | doramapimod 0.054 | bafetinib -0.029 | [2] 0.041

WARS (UniProt P23381)
inactive: lapatinib 0.012 | pictilisib 0.02 | crizotinib 0.02 | [1] 0.122 | duvelisib -0.006 | gandotinib -0.025 | tozasertib -0.051 | doramapimod -0.065 | bafetinib 0.287 | [2] -0.111

WRAP73 (UniProt Q9P2S5)
inactive: lapatinib 0.003 | pictilisib -0.071 | crizotinib -0.07 | [1] -0.067 | duvelisib -0.075 | gandotinib 0.063 | tozasertib 0.014 | doramapimod 0.021 | bafetinib -0.043 | [2] 0

VWA3B isoform 6 (UniProt Q502W6)
inactive: lapatinib -0.083 | pictilisib -0.134 | crizotinib 0.057 | [1] -0.312 | duvelisib 0.109 | gandotinib 0.086 | tozasertib 0.042 | doramapimod 0.021 | bafetinib -0.25 | [2] 0.287

Looked up one by one from above, 2 records:
WRAP73 (UniProt Q9P2S5)
inactive: lapatinib 0.003 | pictilisib -0.071 | crizotinib -0.07 | [1] -0.067 | duvelisib -0.075 | gandotinib 0.063 | tozasertib 0.014 | doramapimod 0.021 | bafetinib -0.043 | [2] 0

WARS (UniProt P23381)
inactive: lapatinib 0.012 | pictilisib 0.02 | crizotinib 0.02 | [1] 0.122 | duvelisib -0.006 | gandotinib -0.025 | tozasertib -0.051 | doramapimod -0.065 | bafetinib 0.287 | [2] -0.111

(listing goes on)

WASF2 (UniProt Q9Y6W5)
inactive: lapatinib -0.005 | pictilisib -0.014 | crizotinib 0.036 | [1] -0.01 | duvelisib 0.013 | gandotinib -0.015 | tozasertib 0.032 | doramapimod -0.045 | bafetinib -0.015 | [2] 0.038

WBP11 (UniProt Q9Y2W2)
inactive: lapatinib 0.03 | pictilisib 0.001 | crizotinib 0.01 | [1] 0.021 | duvelisib 0.012 | gandotinib 0.087 | tozasertib 0.021 | doramapimod 0.063 | bafetinib -0.01 | [2] -0.016

VRK3 (UniProt Q8IV63)
inactive: lapatinib 0.008 | pictilisib -0.029 | crizotinib -0.055 | [1] -0.007 | duvelisib 0.029 | gandotinib -0.012 | tozasertib 0.054 | doramapimod 0.008 | bafetinib 0.082 | [2] -0.037

WDR62 isoform 4 (UniProt O43379)
inactive: lapatinib -0.025 | pictilisib 0.028 | crizotinib -0.048 | [1] -0.021 | duvelisib 0.006 | gandotinib -0.032 | tozasertib 0.034 | doramapimod 0.038 | bafetinib -0.05 | [2] 0.08

VPS26B (UniProt Q4G0F5)
inactive: lapatinib -0.008 | pictilisib -0.04 | crizotinib -0.026 | [1] -0.128 | duvelisib 0.03 | gandotinib 0.041 | tozasertib 0.027 | doramapimod 0.044 | bafetinib -0.013 | [2] 0.055

WASHC4 (UniProt Q2M389)
inactive: lapatinib 0 | pictilisib -0.039 | crizotinib -0.045 | [1] -0.01 | duvelisib 0.04 | gandotinib 0.017 | tozasertib 0.005 | doramapimod 0.049 | bafetinib -0.068 | [2] 0.033

WDCP (UniProt Q9H6R7)
inactive: lapatinib -0.048 | pictilisib 0.017 | crizotinib -0.079 | [1] 0.022 | duvelisib 0.038 | gandotinib -0.058 | tozasertib -0.03 | doramapimod -0.02 | bafetinib -0.027 | [2] 0.002

VPS13A (UniProt Q96RL7)
inactive: lapatinib -0.001 | pictilisib 0.029 | crizotinib -0.026 | [1] 0.004 | duvelisib 0.036 | gandotinib -0.043 | tozasertib 0.056 | doramapimod -0.087 | bafetinib -0.044 | [2] 0.12

WASF1 (UniProt Q92558)
inactive: lapatinib 0.017 | pictilisib -0.007 | crizotinib -0.049 | [1] -0.099 | duvelisib 0.048 | gandotinib 0.019 | tozasertib 0.063 | doramapimod 0.028 | bafetinib -0.084 | [2] 0.08

WDR43 (UniProt Q15061)
inactive: lapatinib 0.022 | pictilisib 0.009 | crizotinib -0.012 | [1] -0.045 | duvelisib -0.033 | gandotinib 0.007 | tozasertib 0.017 | doramapimod 0.059 | bafetinib -0.023 | [2] 0.061

WDR55 (UniProt Q9H6Y2)
inactive: lapatinib -0.055 | pictilisib 0.021 | crizotinib -0.008 | [1] -0.048 | duvelisib 0.057 | gandotinib 0.003 | tozasertib 0.014 | doramapimod 0.092 | bafetinib -0.165 | [2] 0.063

VPS36 (UniProt Q86VN1)
inactive: lapatinib 0.013 | pictilisib 0.026 | crizotinib 0 | [1] -0.105 | duvelisib 0.034 | gandotinib 0.011 | tozasertib 0.013 | doramapimod 0.072 | bafetinib -0.027 | [2] 0.082

VMP1 (UniProt Q96GC9)
inactive: lapatinib 0.014 | pictilisib -0.157 | crizotinib -0.048 | [1] -0.196 | duvelisib 0.055 | gandotinib 0.053 | tozasertib -0.004 | doramapimod 0.05 | bafetinib -0.059 | [2] 0.13

WIPF1 isoform 3 (UniProt O43516)
inactive: lapatinib -0.032 | pictilisib -0.024 | crizotinib -0.007 | [1] -0.072 | duvelisib -0.168 | gandotinib 0.044 | tozasertib -0.001 | doramapimod -0.005 | bafetinib -0.098 | [2] 0.116

VKORC1 (UniProt Q9BQB6)
inactive: lapatinib -0.111 | pictilisib -0.023 | crizotinib -0.011 | [1] -0.087 | duvelisib 0.082 | gandotinib -0.203 | tozasertib 0.045 | doramapimod -0.017 | bafetinib -0.038 | [2] 0.006

WWP2 (UniProt O00308)
inactive: lapatinib -0.052 | pictilisib 0.044 | crizotinib -0.035 | [1] -0.093 | duvelisib -0.073 | gandotinib -0.001 | tozasertib -0.114 | doramapimod 0.075 | bafetinib 0.004 | [2] 0.084

WDHD1 (UniProt O75717)
inactive: lapatinib -0.017 | pictilisib -0.025 | crizotinib -0.035 | [1] 0.077 | duvelisib 0.007 | gandotinib -0.082 | tozasertib -0.043 | doramapimod 0.011 | bafetinib 0.023 | [2] -0.037

WDR1 (UniProt O75083)
inactive: lapatinib -0.013 | pictilisib -0.016 | crizotinib 0.011 | [1] 0.08 | duvelisib -0.006 | gandotinib -0.065 | tozasertib -0.015 | doramapimod 0.007 | bafetinib 0.025 | [2] -0.096

VPS54 (UniProt Q9P1Q0)
inactive: lapatinib -0.018 | pictilisib 0.068 | crizotinib -0.296 | [1] -0.263 | duvelisib -0.012 | gandotinib 0.399 | tozasertib 0.047 | doramapimod 0.066 | bafetinib 0.431 | [2] 0.395

WDR47 (UniProt O94967)
inactive: lapatinib 0.006 | pictilisib -0.128 | crizotinib -0.026 | [1] 0.062 | duvelisib -0.007 | gandotinib 0.187 | tozasertib -0.025 | doramapimod 0 | bafetinib -0.027 | [2] -0.008

VRK1 (UniProt Q99986)
inactive: lapatinib -0.005 | pictilisib 0.002 | crizotinib -0.023 | [1] 0.172 | duvelisib 0.013 | gandotinib -0.078 | tozasertib -0.052 | doramapimod -0.052 | bafetinib -0.042 | [2] -0.014

VPS50 (UniProt Q96JG6)
inactive: lapatinib -0.022 | pictilisib 0.003 | crizotinib -0.054 | [1] 0.043 | duvelisib -0.034 | gandotinib -0.104 | tozasertib -0.003 | doramapimod -0.044 | bafetinib -0.057 | [2] -0.041

XP32 (UniProt Q5T750)
inactive: crizotinib -0.675 | [1] 0.924 | gandotinib 0.101 | doramapimod 0.207 | [2] -0.41

WDYHV1 (UniProt Q96HA8)
inactive: lapatinib 0.041 | crizotinib 0.04 | duvelisib 0.032 | tozasertib 0.095 | doramapimod -0.014

WDR53 (UniProt Q7Z5U6)
inactive: pictilisib -0.002 | crizotinib 0.032 | [1] 0.081 | duvelisib -0.17 | gandotinib -0.064 | tozasertib 0.022 | doramapimod -0.093 | bafetinib -0.137 | [2] 0.019
